Measured values: PubChem BioAssay AID743291 (Broad Institute, 2014)
These results got no clear call from the source, so the numbers are uncertain.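 How the source made its calls: active means signal drop with fitted half-maximal dose at most twice the top valid dose, active in every repeat; inconclusive means repeats disagree, or flat partial inhibition, or poor fit; inactive means inactive in every repeat, including opposite effects.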

Chains of the proteins cited; added tags and fusions are not shown. Lines headed by an entry give the natural chain unless they say otherwise; changes in a name come on top.
UniProt P42574: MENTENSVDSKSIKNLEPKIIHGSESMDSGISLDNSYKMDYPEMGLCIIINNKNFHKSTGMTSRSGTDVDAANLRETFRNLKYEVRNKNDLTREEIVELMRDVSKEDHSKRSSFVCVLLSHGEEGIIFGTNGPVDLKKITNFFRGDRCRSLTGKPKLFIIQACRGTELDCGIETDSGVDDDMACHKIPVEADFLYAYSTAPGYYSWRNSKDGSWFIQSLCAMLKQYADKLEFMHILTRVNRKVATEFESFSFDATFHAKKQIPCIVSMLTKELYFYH

Target: Caspase-3 (Homo sapiens) (UniProt P42574)
Assay: caspase-3 enzyme inhibitors, selectivity check, dose response, selectivity assay for caspase-6 allosteric inhibitor project, biochemical, fluorescence, cherry-picked samples (AID 743291)
Settings: Recombinant caspase-3, Z-DEVD-R110 cleavage fluorescence; at 35 µM (top of the series)

## O=c1c(CO)cc(CO)cc(CO)c1O
  activity change, negative = inhibition: inconclusive: 0.619%
